Small-molecule microarray binding calls

Source: the ROBIN nucleic acid binder screens (doi:10.1002/anie.202211358).

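Compounds were printed on reactive glass slides in duplicate spots, a dye-labelled oligonucleotide was laid over them, and the fluorescence left after washing was read. For the PreQ1, TPP and SAM-II riboswitches the laboratory earlier reported (doi:10.1038/s41467-019-09493-3) 1 µM RNA, 2 h, and a rule that included a mean Z-score above 3 (spot signal-to-noise against the whole library), a score well above that on a control array, and duplicate spots agreeing (coefficient of variation under 100). The data file gives only the calls; its cut-offs may differ, and compounds hitting several targets are kept. The calls come from the array alone, and fixing a compound to the slide can hide its binding.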
“hit” means called a hit, “no hit” means screened and not called a hit.
Compounds were drawn at random from those tested, without regard to their results.
A target missing from an entry has no call listed here.
A dash means that no call is listed here.

Oligonucleotides screened, 5′ to 3′:
T1: TPP riboswitch RNA three-way junction, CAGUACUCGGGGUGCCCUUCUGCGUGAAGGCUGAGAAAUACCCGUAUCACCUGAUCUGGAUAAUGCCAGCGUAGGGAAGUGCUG. About 160 hits among about 24,000 compounds.
T2: SAM-II riboswitch RNA pseudoknot, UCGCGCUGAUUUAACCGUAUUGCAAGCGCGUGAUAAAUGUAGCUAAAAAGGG. About 200 hits among about 21,000 compounds.

* CC1CCCCN1C1CN(c2nc(CCN)nc3ccccc23)C1 (stereo not drawn) : T1: no hit; T2: no hit
* Oc1cc(CN2Cc3ccccc3C(O)C2)nc2ccc(F)cc12 (stereo not drawn) : T1: no hit; T2: no hit
* CC[C@@]1(O)CCN(C(=O)c2cccc(N3Cc4ccccc4C3)c2)C[C@H]1O : T1: no hit; T2: no hit
* COc1nc2c(cc1C(=O)N1CCC(C(O)c3cccs3)CC1)CCC2 (stereo not drawn) : T1: no hit; T2: no hit
* N#Cc1c(-c2cccnc2)cc(-c2cnn(-c3cccc(Cl)c3)c2)nc1N : T1: no hit; T2: no hit
* Cc1ccccc1-c1cc(O)c2c(c1)CN(C(=O)c1cc(N)[nH]n1)CCO2 : T1: no hit; T2: no hit
* OCC1CC2CC(O)CC(C1)C2 (stereo not drawn) : T1: no hit; T2: no hit
* CCNc1nc(C)cc(N2CCN(S(=O)(=O)c3cccc(Cl)c3)CC2)n1 : T1: no hit
* CNCCN1C(=O)CC[C@H]2CN(C(=O)c3c[nH]c4nc(C)nn4c3=O)CC[C@H]21 : T1: no hit; T2: no hit
* Fc1ccc(-c2csc3ncnc(NCCc4cccs4)c23)cc1 : T1: no hit; T2: no hit
* NCCc1nncn1-c1cccc2ccccc12 : T1: no hit; T2: hit
* N#Cc1ccccc1N1CCN(C(=O)C(O)c2ccc(F)cc2)CC1=O (stereo not drawn) : T1: no hit; T2: no hit
* CC1=C(C(=O)O)N2C(=O)[C@@H](NC(=O)C(N)c3ccccc3)[C@H]2SC1 (stereo partly drawn) : T1: no hit; T2: no hit
* COc1cccc(CNc2nc3ccc(C)cc3cc2-c2noc(C(C)C)n2)c1 : T1: no hit
* c1ccc(COc2ccc(CNCc3cccnc3)cc2)cc1 : T1: no hit; T2: no hit
* CCNc1nc(C)cc(N2CCN(S(=O)(=O)c3ccc(OCC)cc3)CC2)n1 : T1: no hit
* O=S1(=O)N=C(NCCCCO)c2ccccc21 : T1: no hit
* Cn1cc(SCC(=O)NCc2cc3n(n2)CCNC3)c2ccccc21 : T1: no hit; T2: no hit
* Cn1c(=O)c2c(c3ccccc31)OC(N)=C(C#N)C21C(=O)Nc2ccccc21 (stereo not drawn) : T1: no hit; T2: no hit
* Oc1cc(C2CCCN(c3ncnc4c3CCNCC4)C2)ncn1 (stereo not drawn) : T1: no hit; T2: no hit
* Cc1nc(Nc2ccc(Cl)cc2)ncc1C(=O)O : T1: no hit
* Cc1cc(NCCC(C)C)n2nc(-c3ccccc3)c(C)c2n1 : T1: no hit
* COc1ccc(OC)c(C(=O)c2oc3ccc(N)cc3c2C)c1 : T1: no hit; T2: no hit
* COc1ccccc1CNc1ccc2c(c1)nc(C)n2Cc1ccccc1 : T1: no hit; T2: no hit
* O=C(c1c[nH]nc1C1CCCCC1)N1CCOc2ccc(CO)cc2C1 : T1: no hit; T2: no hit
* COc1ccc(-n2nc(C(N)=O)c3c2C(=O)N(c2ccc(N4CCCCC4=O)cc2)CC3)cc1 : T1: no hit; T2: no hit
* Cl.O=C1c2cccc3cccc(c23)C(=O)N1CC1CCN(CC(O)COCC2COc3ccccc3O2)CC1 (stereo not drawn) : T1: no hit; T2: no hit
* OC(COc1cccc2ccccc12)CN1CCN(c2ccccc2Cl)CC1 (stereo not drawn) : T1: no hit; T2: no hit
* CS(=O)(=O)Oc1ccc(Br)c2cccnc12 : T1: no hit; T2: no hit
* O=c1oc2ccccc2c2c1C(c1ccc3c(c1)OCO3)Nc1ccc3ccccc3c1-2 (stereo not drawn) : T1: no hit; T2: no hit
* Cl.O=C(O)c1ccc(CNC2C3CC4CC(C3)CC2C4)cc1 (stereo not drawn) : T1: no hit; T2: no hit
* CC(C)c1nccc(CN2CC[C@H](CO)[C@H](O)C2)n1 : T1: no hit; T2: no hit
* Brc1ccc(Nc2nc3ccccc3n3cnnc23)cc1 : T1: no hit; T2: no hit
* Cn1c(CNC(=O)CN)cc(=O)n(C)c1=O : T1: no hit; T2: no hit
* c1cc(-n2cnnn2)cc(-n2ccnc2-c2cn(C3CCNCC3)nn2)c1 : T1: no hit; T2: no hit
* Cc1c(CO)c2ccccc2n1Cc1ccc(Br)cc1 : T1: no hit; T2: no hit
* COc1cccc(-c2ccc(C(=O)N3CCN[C@@H]4CS(=O)(=O)C[C@@H]43)o2)c1 : T1: no hit; T2: no hit
* NCCNC(=O)c1nnc(Cc2cccc(C(F)(F)F)c2)o1 : T1: no hit; T2: no hit
* OCCSc1ccc(Cc2ccc(SCCO)cc2)cc1 : T1: no hit; T2: no hit
* OCc1cc(-c2ccc(CN3CCCC3)cn2)ccc1F : T1: no hit; T2: no hit
* Cc1cccc(Nc2c(-c3ccc(N4CCOCC4)cc3)nc3ncccn23)c1 : T1: no hit; T2: no hit
* C=CCn1c(CCNC(=O)CCCO)nc2ccccc21 : T1: no hit
* O=C(COc1cccnc1)N1CCC2(CCN(C3CCCCC3)CC2)C(CO)C1 (stereo not drawn) : T1: no hit; T2: no hit
* CSc1n[nH]c(N)c1-c1nc(-c2ccc(C)cc2)no1 : T1: no hit; T2: no hit
* Cc1noc(N)c1C(=O)Nc1ccc(C(C)(C)C)cc1 : T1: no hit; T2: no hit
* CCC1CN(C(=O)c2ccc(CO)o2)CCC(=O)N1Cc1ccccc1 (stereo not drawn) : T1: no hit; T2: no hit

Some entries from above, unchanged:

Compound,T1,T2
N#Cc1ccccc1N1CCN(C(=O)C(O)c2ccc(F)cc2)CC1=O (stereo not drawn),no hit,no hit
c1cc(-n2cnnn2)cc(-n2ccnc2-c2cn(C3CCNCC3)nn2)c1,no hit,no hit
Cc1nc(Nc2ccc(Cl)cc2)ncc1C(=O)O,no hit,-